Results reported in publication PMC8438336.
These are yes or no findings as the source states them, for the method shown. In cells and extracts the contact can be indirect. Some entries that bind do so weakly or less than the wild type.

The chains behind the UniProt entries cited, without tags or fusion partners. Residues count along the entry.
UniProt P06536: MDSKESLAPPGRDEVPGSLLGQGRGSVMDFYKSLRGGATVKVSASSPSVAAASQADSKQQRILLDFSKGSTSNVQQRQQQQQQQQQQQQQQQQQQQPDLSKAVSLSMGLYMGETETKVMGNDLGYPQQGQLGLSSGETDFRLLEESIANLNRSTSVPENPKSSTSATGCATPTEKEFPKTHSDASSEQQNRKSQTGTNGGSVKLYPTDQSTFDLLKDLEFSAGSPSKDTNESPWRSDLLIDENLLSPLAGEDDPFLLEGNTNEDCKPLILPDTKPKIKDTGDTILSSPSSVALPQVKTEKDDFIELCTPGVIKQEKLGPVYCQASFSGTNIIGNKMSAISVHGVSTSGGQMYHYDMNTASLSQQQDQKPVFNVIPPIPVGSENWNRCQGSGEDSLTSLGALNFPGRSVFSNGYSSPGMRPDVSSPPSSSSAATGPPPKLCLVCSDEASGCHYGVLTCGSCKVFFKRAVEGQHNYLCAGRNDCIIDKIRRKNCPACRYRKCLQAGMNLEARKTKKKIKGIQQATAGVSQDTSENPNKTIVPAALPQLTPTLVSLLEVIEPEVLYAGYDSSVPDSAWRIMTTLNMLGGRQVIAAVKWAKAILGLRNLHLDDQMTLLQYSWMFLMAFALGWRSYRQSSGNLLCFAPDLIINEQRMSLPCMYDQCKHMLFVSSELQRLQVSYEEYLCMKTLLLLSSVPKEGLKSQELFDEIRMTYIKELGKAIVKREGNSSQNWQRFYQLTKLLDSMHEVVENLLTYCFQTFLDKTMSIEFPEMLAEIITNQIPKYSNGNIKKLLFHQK
UniProt P19490, residues 19-907: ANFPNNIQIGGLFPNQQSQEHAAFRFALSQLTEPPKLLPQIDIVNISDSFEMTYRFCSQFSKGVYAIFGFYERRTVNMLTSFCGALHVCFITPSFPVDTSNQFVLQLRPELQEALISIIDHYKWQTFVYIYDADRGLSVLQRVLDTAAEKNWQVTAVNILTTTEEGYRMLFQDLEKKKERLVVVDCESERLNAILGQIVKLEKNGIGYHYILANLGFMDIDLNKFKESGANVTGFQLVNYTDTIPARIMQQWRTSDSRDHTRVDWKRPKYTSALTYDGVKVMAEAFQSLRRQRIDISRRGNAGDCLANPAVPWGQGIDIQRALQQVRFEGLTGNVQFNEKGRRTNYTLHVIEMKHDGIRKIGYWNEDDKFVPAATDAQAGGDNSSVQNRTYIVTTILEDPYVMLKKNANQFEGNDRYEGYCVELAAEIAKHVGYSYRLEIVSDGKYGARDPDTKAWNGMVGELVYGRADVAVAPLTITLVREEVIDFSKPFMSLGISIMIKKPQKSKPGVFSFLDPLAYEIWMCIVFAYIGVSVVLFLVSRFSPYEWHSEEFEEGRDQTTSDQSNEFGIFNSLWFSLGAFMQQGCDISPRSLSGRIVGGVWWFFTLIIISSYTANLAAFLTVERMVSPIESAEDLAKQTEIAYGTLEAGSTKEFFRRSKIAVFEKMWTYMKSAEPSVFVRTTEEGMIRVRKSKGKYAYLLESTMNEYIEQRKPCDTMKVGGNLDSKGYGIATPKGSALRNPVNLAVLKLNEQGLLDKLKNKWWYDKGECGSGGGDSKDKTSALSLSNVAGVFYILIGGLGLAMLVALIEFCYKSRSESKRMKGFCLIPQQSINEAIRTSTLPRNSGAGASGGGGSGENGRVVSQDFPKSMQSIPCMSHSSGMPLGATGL

Molecular target: glucocorticoid receptor (rat (endogenous in Wistar rat amygdala)) (UniProt P06536)
Assay: co-IP; anti-GR polyclonal antibody immobilised on AminoLink Plus resin (Pierce Co-IP kit); 80 ug total amygdala protein lysate of each group (Con, MS, M+P+S, MS+S-M, each with or without L. paracasei HT6 supplementation), overnight at 4°C; eluate immunoblotted with anti-GluR1

binding: binds
Substance: glutamate receptor GluR1 (AMPA receptor subunit) (from UniProt P19490 19-907)
